A short description of this assay: qHTS Assay for Lipid Storage Modulators in Drosophila S3 Cells.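 On cell number change: cells counted by Cell Tracker Red CMTPX staining in the red channel.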 The note with it: BODIPY lipid droplet fluorescence, 18-24 h; for cell number change: measured here: cell count max response, cells fed with added oleic acid. The procedure, abridged: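 Laser-scanning cytometry quantifies lipid droplet accumulation (500–530 nm total intensity; droplet/cell object ratio) in oleic acid-fed (400 uM added) Drosophila S3 cells treated with a concentration series. 20 uM Triacsin C defined 100% inhibition.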

Setting [1] is: measured here: lipid fluorescence (Fed channel) AC50, cells fed with added oleic acid.
Where [2] appears, read: measured here: cell number channel AC50, cells fed with added oleic acid.

Structures are written as SMILES. Some of the results follow. Shown are side measurements of this screen, not its main read-out; they come without a call. Compounds called inactive in the main read-out are mostly missing here. Words in brackets tell the shape of the fitted curve; partial curves, single points and poor fits give uncertain potencies.

The text below walks through data of PubChem BioAssay AID2685 (National Center for Advancing Translational Sciences (NCATS), 2010).

One may read the AC50 as the concentration at which the activity in the assay is half-maximal. Higher therefore signals activity only at high concentration.

As to `CCOC(=O)c1ccc(NC(=O)CSc2nnc(COc3ccccc3)n2C)cc1`, the cell number change is -3.91%.

As for `CCOc1ccccc1NC(=O)C(=O)CC(=O)c1cccc(OC)c1`, the cell number change is -17.7%. The half-maximal activity concentration (AC50) under setting [1] was 0.116 µM [falling, full curve, poor fit].

Take `COCCN1C(=O)C(CC(=O)Nc2ccccc2)SC1=Nc1ccc(OC)cc1` (stereo unspecified): the cell number change was determined as 18.6%. Further, the AC50 under setting [2] is 1.64 µM [rising, partial curve]. Also, the AC50 under setting [1] is 2.59 µM [rising, partial curve].

As for `CCOc1ccc2nc(SCC(=O)N3c4ccccc4Sc4ccccc43)c(C#N)cc2c1`, the cell number change turned out to be 25.2%. Besides, the concentration at half-maximal activity (AC50) under setting [1] is 11.6 µM [rising, partial curve].

Consider `O=C(O)Cc1ccc(OCc2ccc(Cl)nc2)cc1`, for which the cell number change came out at 3.08%. Moreover, under setting [2], the AC50 was 0.00517 µM [rising, full curve, poor fit]. For the same compound, under setting [1], the AC50 is 0.00651 µM [rising, full curve, poor fit].

Regarding `COCc1cc(C)nc(SCc2ccc([N+](=O)[O-])cc2)c1C#N`, the cell number change was -28.8%.

In the case of `O=C(CSc1ncnc2c1oc1ccccc12)c1cccs1`, the cell number change amounted to 166%. Further, under setting [2], the AC50 is 18.4 µM [rising, single point].

In the case of `CC1(C)CC(CCC(=O)Nc2ccc(S(N)(=O)=O)cc2)C(=O)O1` (stereo unspecified), the cell number change was found to be 33.9%. Also, under setting [2], the AC50 was 7.31 µM [rising, partial curve].

For the compound `Cc1ccc2nsnc2c1NC(=S)NC(=O)c1ccco1`, the half-maximal activity concentration (AC50) reads like this: under setting [2], 0.00461 µM [falling, full curve, poor fit]; under setting [1], 1.84 µM [falling, single point].

Take `CNC(=S)N(CCc1c(C)[nH]c2ccc(C)cc12)Cc1ccco1`: the cell number change was 17%. For the same compound, under setting [1], the half-maximal activity concentration (AC50) is 2.31 µM [rising, full curve, poor fit].

Regarding `N#Cc1cn(N2CCCCC2)c(=O)[nH]c1=O`, the cell number change is -41.3%. Besides, the half-maximal activity concentration (AC50) under setting [2] was 23.1 µM [falling, single point]. Further, under setting [1], the half-maximal activity concentration (AC50) was 29.1 µM [falling, single point].

For the compound `CCc1cc2ccccc2nc1SCC(=O)NC1CCCC1`, the cell number change is 13%. The half-maximal activity concentration (AC50) under setting [1] was 1.03 µM [falling, single point].

Turning to `Cc1cc(C)c(C(=O)NC2CCCc3c2cnn3-c2cccc(C)c2C)o1` (stereo unspecified), the cell number change is -33.1%. Moreover, the concentration at half-maximal activity (AC50) under setting [2] is 0.00461 µM [falling, full curve]. Moreover, the AC50 under setting [1] was 0.0291 µM [falling, full curve].

On to `Cc1ccc(-n2c(-c3cccc(C)c3)n[nH]c2=S)cc1`, for which the cell number change was 24%.

For `COc1ccc(OC)c(S(=O)(=O)N2CCN(Cc3ccccc3)CC2)c1`, the cell number change worked out at 29.1%. Moreover, the AC50 under setting [1] is 25.9 µM [rising, partial curve, poor fit].

Take `Cc1c(NC(=O)CS(=O)(=O)c2ccccc2)c(=O)n(-c2ccccc2)n1C`: the cell number change was 148%.

In the case of `O=C(Nc1ccc(O)cc1)/C(=C\C=C\c1ccccc1)NC(=O)c1ccccc1`, the cell number change came to 0.875%. The AC50 under setting [1] is 7.31 µM [falling, single point].

Take `O=S(=O)(c1cnc(Cl)c(Br)c1)N1CCCCCC1`: the cell number change was -16.4%. In addition, the half-maximal activity concentration (AC50) under setting [1] was 29.1 µM [falling, partial curve, poor fit].

Consider `COCCCn1c(C2CCCCC2)nc2oc3cc(OC)ccc3c(=O)c2c1=O`, for which the cell number change was 1.58%. The concentration at half-maximal activity (AC50) under setting [1] is 3.26 µM [rising, single point].

In the case of `CCNC(=O)C1CC(=O)N(c2ccc(OCC)cc2)C1` (stereo unspecified), the cell number change amounted to 10.8%. Besides, the concentration at half-maximal activity (AC50) under setting [1] was 0.164 µM [rising, full curve, poor fit].

Regarding `Cc1cc(C)n2nc(SCc3ccccc3F)nc2n1`, the cell number change came out at 11.2%. Besides, under setting [1], the AC50 is 2.91 µM [rising, partial curve, poor fit].

Regarding `CCCCNS(=O)(=O)c1cc(-c2nn(C)c(=O)c3ccccc23)ccc1C`, the cell number change was -14.2%.

For `CCc1ccc(-c2cc(C)no2)cc1S(=O)(=O)Nc1ccc(C)cn1`, the cell number change was found to be 3.54%. Also, the AC50 under setting [1] was 6.51 µM [rising, single point].

Take `CC(=O)Nc1cccn(Cc2c(Cl)cccc2Cl)c1=O`: the cell number change was 54.7%. Moreover, the half-maximal activity concentration (AC50) under setting [1] was 0.092 µM [falling, full curve].

For the compound `CCn1cc(C(=O)O)c(=O)c2cc(F)c(N3CCN(C(=S)NC(=O)c4ccccc4Cl)CC3)cc21`, the cell number change was 58.2%. Also, the half-maximal activity concentration (AC50) under setting [2] is 29.1 µM [rising, single point].

With `C/C(CCc1ccco1)=N\NC(=O)CNc1cccc2ccccc12`, the cell number change stood at 41.2%. Further, the AC50 under setting [2] was 25.9 µM [rising, partial curve, poor fit].

On to `Cc1cc2c(cc(C(=O)OCC(=O)NCc3cccs3)n2C(C)C)o1`, for which the cell number change turned out to be 30.5%. The AC50 under setting [1] is 6.51 µM [falling, single point].

Turning to `CSc1ccc(CCNC(=O)CCc2nnc3ccc(N4CCCCC4)nn23)cc1`, the cell number change was -0.898%. Moreover, the AC50 under setting [1] is 29.1 µM [falling, single point].

For the compound `Cc1ccc(C)n1-c1cccc(C(=O)Nc2ccccc2)c1`, the half-maximal activity concentration (AC50) under setting [2] was 6.51 µM [rising, single point].

With `COC(=O)[C@H](CC(C)C)NC(=O)c1cc2c(cn1)[nH]c1ccccc12`, the cell number change was 16.3%.

Take `Cc1ccc2cccc(OCc3ccc(Br)cc3)c2n1`: the cell number change was found to be 76.1%. In addition, the AC50 under setting [2] was 4.61 µM [rising, full curve, poor fit]. For the same compound, under setting [1], the AC50 was 5.17 µM [rising, full curve].

Take `CC(=O)Nc1ccc(Nc2nc(C)nc3c2nnn3Cc2ccccc2Cl)cc1`: the cell number change was determined as 9.47%. Also, the concentration at half-maximal activity (AC50) under setting [1] is 6.51 µM [falling, partial curve, poor fit].

`Cc1ccc(Nc2nc(C)cc(C)c2C(N)=O)c(C)c1`: the cell number change was -22.1%. In addition, the half-maximal activity concentration (AC50) under setting [1] was 29.1 µM [rising, single point].

In the case of `CC(OC(=O)CN1C(=O)c2ccccc2C1=O)C(=O)c1ccccc1` (stereo unspecified), the cell number change was -0.825%. For the same compound, the half-maximal activity concentration (AC50) under setting [1] was 29.1 µM [falling, single point].

For `COc1cccc(C(=O)O/N=C2\CCS(=O)(=O)c3sccc32)c1`, the cell number change is -13.2%. Further, the AC50 under setting [2] is 3.26 µM [falling, single point]. Also, the AC50 under setting [1] is 25.9 µM [falling, single point].

Turning to `COc1ccc(-n2c(SCC#N)nnc2-c2ccc(NS(=O)(=O)c3ccc(C)cc3)cc2)cc1`, the cell number change is -35%. The AC50 under setting [2] is 0.58 µM [falling, partial curve, poor fit]. Moreover, the AC50 under setting [1] is 4.11 µM [falling, full curve, poor fit].

For the compound `Cc1nc(C)c(-c2csc(NCCc3ccccc3)n2)s1`, the cell number change is -13.2%. In addition, the half-maximal activity concentration (AC50) under setting [1] is 23.1 µM [falling, single point].

`Cc1ccc(NS(=O)(=O)c2cccc(C(=O)NCCCn3ccnc3)c2)cc1`: the cell number change was -75%. Also, the concentration at half-maximal activity (AC50) under setting [2] is 18.4 µM [falling, single point].

Turning to `C=CCc1ccc(OCCCOc2ccc(C)c(C)c2)c(OC)c1`, the cell number change came out at 54.1%. Also, under setting [2], the AC50 was 18.4 µM [rising, single point].

Take `CC(=O)N1c2ccc(S(=O)(=O)NCCC(=O)Nc3cccc(Cl)c3)cc2CC1C` (stereo unspecified): the cell number change was -31.1%. Moreover, under setting [2], the half-maximal activity concentration (AC50) was 18.4 µM [falling, single point]. In addition, the AC50 under setting [1] is 6.51 µM [falling, single point].

For the compound `OC(CNCCc1ccc(C(F)(F)F)cc1)COc1ccc2ccccc2c1` (stereo unspecified), the cell number change is -87.9%. The AC50 under setting [2] is 18.4 µM [falling, partial curve]. Besides, the AC50 under setting [1] is 10.3 µM [falling, partial curve].

Turning to `COC(=O)c1ccc(C(=O)OC)c(NC(=O)COC(=O)C2CC2C)c1` (stereo unspecified), the cell number change was 40%. Besides, under setting [2], the half-maximal activity concentration (AC50) was 23.1 µM [rising, single point].

Take `CCn1c(=N)n(CC(=O)C(C)(C)C)c2ccccc21`: the cell number change came out at 14.4%. In addition, the AC50 under setting [2] is 1.46 µM [rising, partial curve].

In the case of `COc1ccc(/C=C/C(=O)NNc2cc(=O)n(C)c(=O)n2C)cc1OC`, the cell number change was -3.48%. Further, the AC50 under setting [1] is 16.4 µM [falling, partial curve].

As to `C#CCN1C(=O)C(O)(CC(=O)c2ccc(OC)c(OC)c2)c2ccccc21` (stereo unspecified), the half-maximal activity concentration (AC50) under setting [1] was 8.2 µM [falling, partial curve].

Consider `CC(C)OC(=O)c1cccc(C(=O)Nc2cccc(NC(=O)c3cccc(C(=O)OC(C)C)n3)n2)n1`, for which the cell number change was -65.9%. The concentration at half-maximal activity (AC50) under setting [2] is 20.6 µM [falling, single point]. Besides, the half-maximal activity concentration (AC50) under setting [1] is 18.4 µM [falling, single point].

With `CCC(C(=O)Nc1ccccc1F)n1nc(C)c2c(C)n(-c3ccccc3)nc2c1=O` (stereo unspecified), under setting [1], the concentration at half-maximal activity (AC50) was 6.51 µM [rising, single point].

Take `COC(=O)c1ccccc1NS(=O)(=O)c1c(C)noc1C`: the cell number change worked out at 69.3%. Further, the half-maximal activity concentration (AC50) under setting [2] is 29.1 µM [rising, single point]. The AC50 under setting [1] was 4.11 µM [rising, full curve].

As for `CCOC(=O)Cc1cc(=O)[nH]c(=O)[nH]1`, the cell number change came out at 11.3%. Under setting [1], the AC50 is 1.03 µM [rising, partial curve, poor fit].

`COC(=O)C1=C(C)NC(C)=C(C(=O)OC)C1C(=O)OCC(=O)N1c2ccccc2CC1C` (stereo unspecified): the cell number change amounted to 6.54%. The concentration at half-maximal activity (AC50) under setting [1] is 0.58 µM [rising, single point].

Regarding `O=C(NCCOc1ccccc1)c1ccccc1`, the concentration at half-maximal activity (AC50) is, setting by setting: under setting [2], 2.06 µM [rising, partial curve]; under setting [1], 6.51 µM [rising, single point].

For the compound `O=C(NCCCc1ccncc1)C1CCC(=O)N(Cc2cccc(F)c2)C1` (stereo unspecified), under setting [1], the AC50 is 4.61 µM [falling, single point].

As to `CCOC(=O)C(CC)/C(C)=N/NC(=O)c1ccccc1[N+](=O)[O-]` (stereo unspecified), the cell number change was -2.08%. For the same compound, the half-maximal activity concentration (AC50) under setting [2] was 0.651 µM [rising, single point]. Further, under setting [1], the AC50 is 0.651 µM [rising, partial curve, poor fit].

For the compound `CCCNC(=O)COC(=O)c1ccc(S(=O)(=O)N2CCCCCC2)cc1`, the cell number change was determined as 40.8%. Also, the AC50 under setting [1] was 6.51 µM [falling, single point].

`CS(=O)(=O)c1ccc(NC(=O)CCN2C(=O)C3CCCCC3C2=O)cc1` (stereo unspecified): the cell number change is 2.03%. The concentration at half-maximal activity (AC50) under setting [1] was 11.6 µM [rising, partial curve].

For `O=C(CSc1ccc(-c2ccc(F)cc2)nn1)NCCc1ccccc1`, the cell number change stood at 25.6%.

Take `CC1(C)Cc2c(C#N)c(OCC(=O)c3ccccc3)nc(-c3ccoc3)c2CO1`: the cell number change came to 2.52%. The AC50 under setting [1] was 4.11 µM [rising, full curve, poor fit].

In the case of `O=c1[nH]c2ccccc2cc1CN(CC1CCCO1)S(=O)(=O)c1ccc(Cl)cc1` (stereo unspecified), the cell number change came out at 30.3%.
